Results reported in the supplement of paper PMC7661543.
The effect of the compound repeats well; differences between the knockouts mostly do not.

Tested on: MDA-MB-231
Assay: relative cell number vs DMSO control (72 h) (% of DMSO); higher = less growth inhibition (more cells)
Protocol: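 QMAP-Seq: a pool of 5 breast cancer cell lines (ZR-75-1, SKBR3, HCC-38, MDA-MB-231, BT-20), each carrying 12 doxycycline-inducible Cas9 sgRNA perturbations (11 knockouts plus non-targeting sgNT), was treated with compounds for 72 h at four 10-fold doses (10 nM-10 uM or 1 nM-1 uM range). Barcodes were amplified and sequenced, and cell number was interpolated from 293T spike-in standard curves. The result is expressed as % of the median of DMSO wells. Two biological replicates.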

N#Cc1ccc(COC[C@H]2O[C@@H](n3c(NCc4ccc(Cl)c(Cl)c4)nc4c(N)ncnc43)[C@H](O)[C@@H]2O)cc1
Conditions	relative cell number
sgRNA knockout: sgATF3, 10 nM	109
sgRNA knockout: sgATF3, 100 nM	83.8
sgRNA knockout: sgATF3, 1000 nM	89.6
sgRNA knockout: sgATF3, 10000 nM	27.9
sgRNA knockout: sgATF4, 10 nM	127
sgRNA knockout: sgATF4, 100 nM	78.3
sgRNA knockout: sgATF4, 1000 nM	86.5
sgRNA knockout: sgATF4, 10000 nM	39.9
sgRNA knockout: sgATF6, 10 nM	85.6
sgRNA knockout: sgATF6, 100 nM	72.3
sgRNA knockout: sgATF6, 1000 nM	87
sgRNA knockout: sgATF6, 10000 nM	30.8
sgRNA knockout: sgATG7, 10 nM	106
sgRNA knockout: sgATG7, 100 nM	99
sgRNA knockout: sgATG7, 1000 nM	78.5
sgRNA knockout: sgATG7, 10000 nM	39.7
sgRNA knockout: sgERN1, 10 nM	110
sgRNA knockout: sgERN1, 100 nM	102
sgRNA knockout: sgERN1, 1000 nM	106
sgRNA knockout: sgERN1, 10000 nM	28.7
sgRNA knockout: sgHSF1, 10 nM	89.2
sgRNA knockout: sgHSF1, 100 nM	97.7
sgRNA knockout: sgHSF1, 1000 nM	84.9
sgRNA knockout: sgHSF1, 10000 nM	20.6
sgRNA knockout: sgHSF2, 10 nM	77.6
sgRNA knockout: sgHSF2, 100 nM	84.1
sgRNA knockout: sgHSF2, 1000 nM	88.6
sgRNA knockout: sgHSF2, 10000 nM	31.7
sgRNA knockout: sgKEAP1, 10 nM	112
sgRNA knockout: sgKEAP1, 100 nM	99.3
sgRNA knockout: sgKEAP1, 1000 nM	98.6
sgRNA knockout: sgKEAP1, 10000 nM	31.3
sgRNA knockout: sgNFE2L2, 10 nM	102
sgRNA knockout: sgNFE2L2, 100 nM	105
sgRNA knockout: sgNFE2L2, 1000 nM	95.7
sgRNA knockout: sgNFE2L2, 10000 nM	35.8
sgRNA knockout: sgSLC35F2, 10 nM	97.8
sgRNA knockout: sgSLC35F2, 100 nM	120
sgRNA knockout: sgSLC35F2, 1000 nM	101
sgRNA knockout: sgSLC35F2, 10000 nM	24.5
sgRNA knockout: sgXBP1, 10 nM	95.2
sgRNA knockout: sgXBP1, 100 nM	114
sgRNA knockout: sgXBP1, 1000 nM	94.9
sgRNA knockout: sgXBP1, 10000 nM	34.1

O=C(NOCC(O)CO)c1cc(Br)c(F)c(F)c1Nc1ccc(I)cc1F (configuration not stated)
Conditions	relative cell number
sgRNA knockout: sgATF3, 10 nM	109
sgRNA knockout: sgATF3, 100 nM	115
sgRNA knockout: sgATF3, 1000 nM	65.8
sgRNA knockout: sgATF3, 10000 nM	37
sgRNA knockout: sgATF4, 10 nM	139
sgRNA knockout: sgATF4, 100 nM	111
sgRNA knockout: sgATF4, 1000 nM	91.3
sgRNA knockout: sgATF4, 10000 nM	43.6
sgRNA knockout: sgATF6, 10 nM	89.2
sgRNA knockout: sgATF6, 100 nM	86.4
sgRNA knockout: sgATF6, 1000 nM	76.3
sgRNA knockout: sgATF6, 10000 nM	52.8
sgRNA knockout: sgATG7, 10 nM	101
sgRNA knockout: sgATG7, 100 nM	93.3
sgRNA knockout: sgATG7, 1000 nM	64.1
sgRNA knockout: sgATG7, 10000 nM	50.7
sgRNA knockout: sgERN1, 10 nM	98.3
sgRNA knockout: sgERN1, 100 nM	85.8
sgRNA knockout: sgERN1, 1000 nM	74
sgRNA knockout: sgERN1, 10000 nM	43.5
sgRNA knockout: sgHSF1, 10 nM	93.3
sgRNA knockout: sgHSF1, 100 nM	81.1
sgRNA knockout: sgHSF1, 1000 nM	76.5
sgRNA knockout: sgHSF1, 10000 nM	40.3
sgRNA knockout: sgHSF2, 10 nM	97.9
sgRNA knockout: sgHSF2, 100 nM	84.2
sgRNA knockout: sgHSF2, 1000 nM	65.7
sgRNA knockout: sgHSF2, 10000 nM	48.6
sgRNA knockout: sgKEAP1, 10 nM	115
sgRNA knockout: sgKEAP1, 100 nM	98.9
sgRNA knockout: sgKEAP1, 1000 nM	73.1
sgRNA knockout: sgKEAP1, 10000 nM	48.3
sgRNA knockout: sgNFE2L2, 10 nM	128
sgRNA knockout: sgNFE2L2, 100 nM	85.2
sgRNA knockout: sgNFE2L2, 1000 nM	65.2
sgRNA knockout: sgNFE2L2, 10000 nM	43.9
sgRNA knockout: sgSLC35F2, 10 nM	115
sgRNA knockout: sgSLC35F2, 100 nM	65.9
sgRNA knockout: sgSLC35F2, 1000 nM	73.6
sgRNA knockout: sgSLC35F2, 10000 nM	41.4
sgRNA knockout: sgXBP1, 10 nM	113
sgRNA knockout: sgXBP1, 100 nM	85.1
sgRNA knockout: sgXBP1, 1000 nM	78
sgRNA knockout: sgXBP1, 10000 nM	50.8

O=c1[nH]cc(F)c(=O)[nH]1 [5-Fluorouracil]
Conditions	relative cell number
sgRNA knockout: sgATF3, 10 nM	98.4
sgRNA knockout: sgATF3, 100 nM	99.7
sgRNA knockout: sgATF3, 1000 nM	112
sgRNA knockout: sgATF3, 10000 nM	40.8
sgRNA knockout: sgATF4, 10 nM	82.6
sgRNA knockout: sgATF4, 100 nM	74.5
sgRNA knockout: sgATF4, 1000 nM	72.3
sgRNA knockout: sgATF4, 10000 nM	71.9
sgRNA knockout: sgATF6, 10 nM	94.4
sgRNA knockout: sgATF6, 100 nM	118
sgRNA knockout: sgATF6, 1000 nM	93.7
sgRNA knockout: sgATF6, 10000 nM	47.3
sgRNA knockout: sgATG7, 10 nM	88.2
sgRNA knockout: sgATG7, 100 nM	91.8
sgRNA knockout: sgATG7, 1000 nM	100
sgRNA knockout: sgATG7, 10000 nM	51.8
sgRNA knockout: sgERN1, 10 nM	99.5
sgRNA knockout: sgERN1, 100 nM	127
sgRNA knockout: sgERN1, 1000 nM	105
sgRNA knockout: sgERN1, 10000 nM	41.7
sgRNA knockout: sgHSF1, 10 nM	91.2
sgRNA knockout: sgHSF1, 100 nM	92.2
sgRNA knockout: sgHSF1, 1000 nM	101
sgRNA knockout: sgHSF1, 10000 nM	50.5
sgRNA knockout: sgHSF2, 10 nM	69.2
sgRNA knockout: sgHSF2, 100 nM	104
sgRNA knockout: sgHSF2, 1000 nM	83.8
sgRNA knockout: sgHSF2, 10000 nM	46.8
sgRNA knockout: sgKEAP1, 10 nM	97.4
sgRNA knockout: sgKEAP1, 100 nM	116
sgRNA knockout: sgKEAP1, 1000 nM	88.7
sgRNA knockout: sgKEAP1, 10000 nM	38.9
sgRNA knockout: sgNFE2L2, 10 nM	93
sgRNA knockout: sgNFE2L2, 100 nM	91.9
sgRNA knockout: sgNFE2L2, 1000 nM	120
sgRNA knockout: sgNFE2L2, 10000 nM	46
sgRNA knockout: sgSLC35F2, 10 nM	91.3
sgRNA knockout: sgSLC35F2, 100 nM	105
sgRNA knockout: sgSLC35F2, 1000 nM	85.7
sgRNA knockout: sgSLC35F2, 10000 nM	44.22
sgRNA knockout: sgXBP1, 10 nM	82.5
sgRNA knockout: sgXBP1, 100 nM	105
sgRNA knockout: sgXBP1, 1000 nM	116
sgRNA knockout: sgXBP1, 10000 nM	55.4
